{"source": "paper PMC12670160", "about": "“A drug-repurposing screen of FDA- and EMA-approved drugs identifies two NF-κB inhibitors active against eumycetoma” (Journal of Antimicrobial Chemotherapy, 2025)", "note": "Where a name gives a salt, the structure may show the parent alone. About 130 (2.5%) of roughly 5,300 compounds showed an effect of 50% or more. The list shows a part of the results. Peptide text beside a SMILES is read from it."}
{"test_system": "M. mycetomatis strain mm55", "settings": "primary screen, metabolic activity vs growth control; 96 h, 2 µM; inhibitor", "units": {"% viability": "%"}}
{"compound": "O=C1NCCNC1c1cccs1", "note": "(stereo not drawn) [ONC0003813, tenilsetam]", "% viability": 64.62}
{"compound": "O=c1[nH]cc(F)c(=O)[nH]1", "note": "[ONC0000498, fluorouracil]", "% viability": 116.2}
{"compound": "NCCc1c[nH]c2ccc(O)cc12", "note": "[ONC0002500, serotonin]", "% viability": 72.63}
{"compound": "CC(=O)Oc1c(C)cccc1C(=O)O", "note": "[ONC0005475, cresopirine]", "% viability": 103}
{"compound": "N=c1ccn2c(n1)O[C@H]1[C@H](O)[C@@H](CO)O[C@H]12", "note": "[ONC0004679, cyclocytidine hcl]", "% viability": 111.1}
{"compound": "CCCCCCCC/C=C\\CCCCCCCC(=O)NCc1ccc(O)c(OC)c1", "note": "[ONC0002688, olvanil]", "% viability": 63.91}
{"compound": "CC(=O)Oc1cc(C(F)(F)F)ccc1C(=O)O", "note": "[ONC0001220, triflusal]", "% viability": 89.02}
{"compound": "CO[C@@]1(NC(=O)C2SC(=C(C(N)=O)C(=O)O)S2)C(=O)N2C(C(=O)O)=C(CSc3nnnn3C)CS[C@@H]21", "note": "(stereo partly drawn) [ONC0000577, cefotetan]", "% viability": 93.81}
{"compound": "CN(C)CCCN1c2ccccc2CCc2ccc(Cl)cc21", "note": "[ONC0005294, clomipramine hydrochloride]", "% viability": 58.67}
{"compound": "O=C1CCC(c2ccccc2)(C2CCN(Cc3ccc(I)cc3)CC2)C(=O)N1", "note": "(stereo not drawn) [ONC0001923, iododexetimide]", "% viability": 70.47}
{"compound": "COC(=O)N1CCN(Cc2cccc(NC(=O)Nc3ccc(C)nc3)c2F)CC1", "note": "[ONC0005089, omecamtiv mecarbil ck1827452]", "% viability": 72.22}
{"compound": "Cc1cc(C(C)(C)CC(C)(C)C)ccc1OCCOCC[N+](C)(C)Cc1ccccc1", "note": "[ONC0003144, methylbenzethonium chloride]", "% viability": 72.5}
{"compound": "CC(=O)N[C@@H](CC(=O)O)C(=O)N[C@@H](CCC(=O)O)C(=O)O", "note": "[ONC0002793, spaglumicacid] (Ac-Asp-Glu-OH)", "% viability": 131.8}
{"compound": "O=C(Nc1c(-c2cccs2)nc2ccccn12)c1ccc(Cl)cc1", "note": "[ONC0000138, ds2806622]", "% viability": 88.21}
{"compound": "NCC1CC(=O)N(Cc2ccccc2)C1", "note": "(stereo not drawn) [ONC0003741, nebracetam]", "% viability": 99.4}
{"compound": "c1cc(-c2sc(-c3ccncc3)c(-c3ccncc3)c2-c2ccncc2)ccn1", "note": "[ONC0001680, gant58]", "% viability": 60.63}
{"compound": "O=C(Nc1cc(-c2ccccc2)nn1-c1ccccc1)c1ccc([N+](=O)[O-])cc1", "note": "[ONC0000214, vu29]", "% viability": 59.45}
{"compound": "O=C1c2ccccc2C(=O)c2ccccc21", "note": "[ONC0002912, anthraquinone]", "% viability": 73.56}
{"compound": "Nc1nccc(-c2c(-c3ccc(F)cc3)ncn2C2CCCCC2)n1", "note": "[ONC0001584, pf670462]", "% viability": 67.14}
{"compound": "Nc1ccc(O)c(C(=O)O)c1", "note": "[ONC0002803, mesalamine lialda]", "% viability": 82.25}
{"compound": "Clc1ccccc1CN1CCc2sccc2C1", "note": "[ONC0004074, ticlopidine hydrochloride]", "% viability": 116.9}
{"compound": "CCC(=O)O[C@H](CC(=O)O)C[N+](C)(C)C", "note": "[ONC0001066, levocarnitine propionate hydrochloride]", "% viability": 85.71}
{"compound": "Ic1cc(-c2ccccc2)ncn1", "note": "[ONC0001546, 4iodo6phenylpyrimidine]", "% viability": 86.82}
{"compound": "CCN(CC)CCOC(=O)C1(c2ccc([N+](=O)[O-])cc2)CCCC1", "note": "[ONC0003594, nitrocaramiphen]", "% viability": 88.48}
{"compound": "COc1cc(Br)c(S(=O)(=O)Nc2ccc(Cl)c(O[C@@H]3CCN(C)C3)c2)cc1OC", "note": "[ONC0002598, sb657510]", "% viability": 67.43}
{"compound": "CN(C)c1nc(N)c(C(=O)Nc2cccnc2)nc1Cl", "note": "[ONC0001616, acdpp]", "% viability": 104.7}
{"compound": "COc1cc(N2CCN(C)CC2)ccc1Nc1nccc(-c2cn(C)c3cnccc23)n1", "note": "[ONC0000822, az191]", "% viability": 62.57}
{"compound": "O=C(O)[C@H](O)[C@@H](O)[C@H](O)[C@H](O)CO", "note": "[ONC0003285, sodium gluconate]", "% viability": 88}
{"compound": "N#Cc1ccc(NCCNCC(=O)N2CCC[C@H]2C#N)nc1", "note": "[ONC0002659, nvpdpp728]", "% viability": 81.04}
{"compound": "CCCCCCCC(=O)N[C@H](CN1CCCC1)[C@H](O)c1ccc2c(c1)OCCO2", "note": "[ONC0001065, eliglustat]", "% viability": 59.74}
{"compound": "COCCN(C(=O)c1cc(OC)c(OC)c(OC)c1)c1nc(-c2ccccc2)cs1", "note": "[ONC0000165, eact]", "% viability": 82.31}
{"compound": "O=C(O)CNC(=O)c1ccccc1", "note": "[ONC0002731, hippuric acid]", "% viability": 98.96}
{"compound": "CN1c2c(nc(N)[nH]c2=O)NC[C@@H]1CNc1ccc(C(=O)N[C@@H](CCC(=O)O)C(=O)O)cc1", "note": "[ONC0002220, levomefolate calcium]", "% viability": 182.5}
{"compound": "C#C[C@]1(O)CC[C@H]2[C@@H]3CCC4=CC(=O)CC[C@@H]4[C@H]3CC[C@@]21C", "note": "[ONC0004517, norethindrone norethisterone]", "% viability": 61.47}
{"compound": "CO[C@@]1(NC(=O)C(C(=O)O)c2ccc(O)cc2)C(=O)N2C(C(=O)O)=C(CSc3nnnn3C)CO[C@@H]21", "note": "(stereo partly drawn) [ONC0000356, moxalactam disodium]", "% viability": 51.37}
{"compound": "O=C(O)[C@@H](O)[C@@H](O)[C@H](O)[C@@H](O)C(=O)O", "note": "[ONC0005415, glucaricacid]", "% viability": 117.4}
{"compound": "COc1ccc(C(=O)N2CCN(c3ccc4c(c3)CCC(=O)N4)CC2)cc1OC", "note": "[ONC0005287, vesnarinone]", "% viability": 108.3}
{"compound": "C=CCc1cc(OC)c(O)c(C(=O)NCCO)c1", "note": "[ONC0004680, alibendol]", "% viability": 120.3}
{"compound": "CCCC(C)NC(=O)c1ccc(Cl)c(Cl)c1", "note": "(stereo not drawn) [ONC0000003, nsc405020]", "% viability": 134.9}
{"compound": "COC1(C[S@@+]([O-])c2ccccc2)CCN(CCc2c[nH]c3ccc(F)cc23)CC1", "note": "[ONC0001454, gr159897]", "% viability": 55.31}
{"compound": "Cc1c(C)c2c(c(C)c1O)CCC(C)(C)O2", "note": "[ONC0002146, apc100]", "% viability": 74.75}
{"compound": "Nc1ccc(S(=O)(=O)Nc2ncccn2)cc1", "note": "[ONC0000536, sulfadiazine]", "% viability": 67.79}
